# Results taken from PubChem BioAssay AID485314 (National Center for Advancing Translational Sciences (NCATS), 2010).
# Hit rate of the full screen: of about 340,000 compounds, about 4,500 (1.3%) were called active. Inconclusive results, whose numbers are uncertain, are shown with a selection of clear calls. The call rests on the fitted dose curve; in most records, active means well fitted inhibition curve with a large enough effect; inconclusive means small, poorly fitted or top-dose-only effect, or another doubt; inactive means no such curve, though single readings can be large or run the other way. Potencies of inconclusive entries are doubtful fits and often do not repeat.
# Target: DNA polymerase beta (Homo sapiens) (UniProt P06746)
# Test: qHTS Assay for Inhibitors of DNA Polymerase Beta
# Settings: Pol beta primer extension/strand displacement, fluorescence kinetic; activity change, negative = inhibition: at 114 µM (top of the series)
# How it was run: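 Kinetic readout of DNA synthesis with strand displacement by Pol beta. Compound and 10 nM enzyme sit 15 min at room temperature; 50 nM substrate starts the reaction, read immediately and at 10 min.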
# On the % scale 0 is the no-effect control and ±100 the full control effect; potency means the concentration at half of the fitted maximal effect.
Compound,Potency,"activity change, negative = inhibition"
O=S(=O)(c1ccc2nc(-c3ccco3)c(-c3ccco3)nc2c1)N1CCOCC1,active: 28.2 µM,–
O=C(c1cc(-c2ccc(O)cc2)on1)N1CCCC1,"inconclusive: 0.1 µM [inhibitor, full curve, poor fit]",–
COCCCn1c(Cc2csc(Nc3cccc(Cl)c3)n2)nnc1SCC(=O)OC,active: 25.1 µM,–
CCc1ccc2c(c1)NC(c1ccc(C)cc1)=NC(c1cccs1)=N2,–,inactive: 0.554%
CC(=O)Nc1ccc(NC(=O)c2ccc3c(c2)NC(=O)c2ccccc2S3)cc1,–,inactive: 7.75%
CN(C)/N=C1\CCS(=O)(=O)c2sccc21,"inconclusive: 39.8 µM [inhibitor, single point]",–
Cc1ccc(NC(=O)C(C)Sc2nc(-c3ccccc3)c(C#N)c(=O)[nH]2)c(C)c1 (stereo unspecified),"inconclusive: 100 µM [inhibitor, single point]",–
COc1ccc(C2/C=C\CNCC(=O)N2Cc2ccc(F)cc2)cc1 (stereo unspecified),"inconclusive: 14.1 µM [inhibitor, single point]",–
Cc1cc(S(=O)(=O)N2CCN(c3c(C)cccc3C)CC2)ccc1F,"inconclusive: 0.562 µM [inhibitor, full curve, poor fit]",–
CC1(C(=O)NC2CCCCC2)Cc2ccccc2C(=O)N1Cc1ccccc1Cl (stereo unspecified),–,inactive: 1.97%
O=c1oc2cc(O)ccc2c2oc3cc(O)ccc3c12,active: 35.5 µM,–
Cc1cccc(Oc2cc(N)cc([N+](=O)[O-])c2)c1,–,inactive: 10.4%
Cc1ccc(C(=O)Nc2ccc3c(c2)C(=O)N(CC2CCCO2)C3=O)cc1 (stereo unspecified),"inconclusive: 25.1 µM [inhibitor, single point]",–
CCc1ccc(NC(=O)Cn2nnc(C(=O)NCc3ccc(C)cc3)c2N)cc1,"inconclusive: 5.62 µM [inhibitor, full curve]",–
O=C1Nc2cc3c(cc2C1=O)sc1ccccc13,active: 39.8 µM,–
CCCCN(CC)C(=O)c1cc2c(=O)n3ccccc3nc2n1C,active: 44.7 µM,–
COc1ccc(S(=O)(=O)N[C@@H](CSCc2ccccc2)C(=O)O)cc1,–,inconclusive: -32.3% [inhibitor]
Cc1ccc(-n2ncc(C(=O)Nc3ccc4c(c3)OCO4)c2C2CCN(C(=O)OC(C)(C)C)CC2)c(C)c1,"inconclusive: 35.5 µM [inhibitor, partial curve]",–
COc1ccc2c(c1OC)C(=O)N(c1nccs1)C2,"inconclusive: 0.0794 µM [inhibitor, full curve]",–
O=C(NC1CCN(S(=O)(=O)c2ccc(F)cc2)CC1)c1ccccc1,"inconclusive: 2.24 µM [inhibitor, partial curve, poor fit]",–
Cc1sc2c(c1C)c(=O)nc1n2Cc2ccccc2-1,"inconclusive: 0.112 µM [inhibitor, full curve, poor fit]",–
COc1ccc(N(C(=O)c2cccc(C)c2)S(=O)(=O)c2ccc(C)cc2)cc1,–,inactive: -11.5%
COc1ccc(N(Cc2cccs2)C(=O)c2ccc(C(C)(C)C)cc2)cc1,"inconclusive: 89.1 µM [inhibitor, single point]",–

# In the list so far, two have an aryl thioether with sulfur outside any ring:
Compound,Potency,"activity change, negative = inhibition"
COCCCn1c(Cc2csc(Nc3cccc(Cl)c3)n2)nnc1SCC(=O)OC,active: 25.1 µM,–
Cc1ccc(NC(=O)C(C)Sc2nc(-c3ccccc3)c(C#N)c(=O)[nH]2)c(C)c1 (stereo unspecified),"inconclusive: 100 µM [inhibitor, single point]",–

# Next compounds follow:

Compound,Potency,"activity change, negative = inhibition"
O=C(COC(=O)c1ccc(S(=O)(=O)N2CCCCC2)cc1)NCc1ccco1,active: 39.8 µM,–
COc1cc(C2Nc3ccc4ncccc4c3C3=C2C(=O)CCC3)cc(OC)c1OC (stereo unspecified),"inconclusive: 1.12 µM [inhibitor, full curve]",–
CCc1ccccc1NC(=O)Nc1nnc(N(C)Cc2ccccc2)s1,–,inactive: 28.9%
O=C(NCc1ccco1)c1c(F)c(F)c(F)c(C(=O)NCc2ccco2)c1F,"inconclusive: 44.7 µM [inhibitor, partial curve, poor fit]",–
CCc1c(C)[nH]n(-c2ccc(Oc3ccccc3)c(S(=O)(=O)O)c2)c1=O,active: 25.1 µM,–
CN1CCN(C(=O)CCCN2C(=O)/C(=C/c3ccccc3)SC2=S)CC1,–,inactive: 30.6%
CC1CCCc2sc3nc(NCc4ccco4)n4ncnc4c3c21 (stereo unspecified),"inconclusive: 89.1 µM [inhibitor, single point]",–
CCOC(=O)c1cc(C(C)=O)c(=O)[nH]c1C,"inconclusive: 2.51 µM [inhibitor, full curve, poor fit]",–
Cc1cc2oc(=O)cc(CN3CCN(Cc4ccc5c(c4)OCO5)CC3)c2cc1C,"inconclusive: 100 µM [inhibitor, single point]",–
CC(NC(=O)Nc1ccc2c(c1)OCO2)C1CCCO1 (stereo unspecified),"inconclusive: 89.1 µM [inhibitor, single point]",–
O=c1[nH]nc(-c2ccc(F)cc2)cc1Cc1ccccc1,–,inconclusive: -36.1% [inhibitor]
Cn1c(=O)cc(SCC(=O)NCc2ccc(F)cc2)c2cc(Cl)ccc21,–,inactive: 31.8%
COc1ccc(CNC(=O)c2ccc(CS(=O)(=O)c3ccc(C)cc3)o2)cc1,–,inactive: -19.2%
CCOC(=O)c1c(C)[nH]c(C)c1S(=O)(=O)N1CCC(C(=O)Nc2ccccc2CC)CC1,–,inactive: 1.98%
CC1=C(c2ccc(C(C)C)cc2)S(=O)(=O)N=C1N1CCC(C(=O)Nc2ccc(C)cc2)CC1,"inconclusive: 11.2 µM [inhibitor, full curve]",–
CCN1C(=O)/C(=C\N2CCCCCC2)SC1=S,"inconclusive: 100 µM [inhibitor, single point]",–
CCOC(=O)c1sc(NC(=O)CSc2nnc(-c3ccco3)n2CC)c(C(=O)OCC)c1C,"inconclusive: 14.1 µM [inhibitor, full curve, poor fit]",–
Cc1cc2[nH]c(=O)c(=O)[nH]c2cc1S(=O)(=O)N1CCN(c2ccccc2)CC1,"inconclusive: 89.1 µM [inhibitor, single point]",–
COc1ccc(N2CCN(C3CC(=O)N(c4ccc5c(c4)OCCO5)C3=O)CC2)cc1 (stereo unspecified),"inconclusive: 89.1 µM [inhibitor, single point]",–
COc1ccc(NC(=O)Cn2c(=O)n(-c3ccc(C)cc3)c(=O)c3c2c2cc(C)ccc2n3C)cc1,–,inactive: 37.1%
C/C(N)=C(/C#N)C(=O)CSc1nn(-c2ccc(Cl)cc2)c(=S)s1,"inconclusive: 11.2 µM [inhibitor, full curve]",–
Cc1ccccc1C(=O)Nc1c(C)[nH]c(=O)[nH]c1=O,–,inactive: 3.8%
